Results of single-concentration screens

Source: ChEMBL document CHEMBL3988442, “University of Dundee, Small-Polar-MMV Screening Library” (2021).

Each number is a percent effect as filed.
The controls that fix the scale are not given in the record; negative values are as filed.
Compounds were drawn at random from those tested, without regard to their results.
A dash means the value is not listed here; it may have been measured.

T. brucei: 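Whole-parasite assay of Trypanosoma brucei over 72 hours; the read-out is not stated. Tested at 30 µM. Higher reads as stronger inhibition (inferred: compounds with an IC50 in retests scored well above the rest). Values scatter widely below zero; nearly all retest evidence comes from the higher of the two concentrations used. Of about 64,000 compounds tested this way, about 940 (1.5%) reached 50% or more in at least one test.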
Toxoplasma: 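Assay of Toxoplasma gondii numbers, read through their beta-galactosidase reporter with a colour substrate. Concentration: 10 µM. Higher reads as fewer parasites (inferred from which compounds were picked for retests). About 67,000 compounds were tested under these conditions; 0.38% (about 260) showed 50% or more at least once.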

SMILES	T. brucei	Toxoplasma
Cc1ncsc1CCN(C)Cc1ccc(Br)o1	-103.5%	-29.2%
CN(C)CCN1CC2(CCCN(c3ncc(Cl)cc3F)C2)CCC1=O (stereo not shown)	-19.83%	-2.393%
COc1cccc2c(=O)n(C3CCNCC3)cnc12	-22.07%	-10.01%
COC[C@@H]1CCC[C@@]12CN(Cc1ccc(C)s1)CCO2.O=C(O)C(F)(F)F	-9.596%	74.98%
Fc1ccc2[nH]c(C3CCCN3CCc3ccccn3)nc2c1 (stereo not shown)	22.71%	-9.396%
CC(=O)N1CCc2c(nc(N(C)C)nc2NCCc2cccs2)C1	-	-1.474%
Cc1cc(C)c(C#N)c(NCCn2cnnc2C(C)C)n1	-40.75%	26.57%
CCc1nccc(CN2CCCC(c3nn(C)c(=O)n3CC)C2)n1 (stereo not shown)	14.96%	3.137%
COc1cccn(CC(=O)N(C)CCCOc2c(C)cccc2C)c1=O	-23.8%	14.02%
CCC1CN(C(=O)NCc2cccnc2-n2cccn2)CCO1 (stereo not shown)	10.69%	0.3235%
COCC(=O)N1CCC(c2noc3nc(C)cc(C(F)(F)F)c23)CC1	-39.22%	14.16%
CCc1cc(CN(C)C(=O)c2cc(=O)[nH]c(=O)[nH]2)on1	-12.6%	-5.993%
CN(C)c1ccc(NC(=O)NCC2CCOC2)cn1 (stereo not shown)	19%	0.313%
N#Cc1ccccc1C(=O)Nc1cccc(CN2CCC(CO)CC2)c1	-24.33%	-31.45%
CN(C)CCN1C(=O)CCCC12CCCN(C(=O)c1cc[nH]n1)C2.O=C(O)C(F)(F)F (stereo not shown)	-2.017%	-5.252%
COc1ccc(-c2noc(C3=NN(C)C(=O)CC3)n2)cc1OC	-36.04%	-10.77%
COc1cccc(OCC2CCCN(C(=O)CCc3cc(O)no3)C2)c1 (stereo not shown)	-44.21%	-1.025%
CCCc1nc(N2CCCC(C)C2)c2c(n1)c(C)nn2CC (stereo not shown)	-29.26%	19%
Cc1cc(CN2CCc3cncnc3C2)no1	-21.08%	2.264%
CCOc1ccc(NC(=O)CN2CCN(c3nccn3C)CC2)cc1	42.51%	2.661%
[H][C@@]12CNC[C@]1([H])N(C(=O)c1ccoc1)CCO2	-54.89%	5.21%
[H][C@]12CCCCN1CCC[C@@]2(O)Cn1cnc2cc(OC)ccc21	15.65%	-8.93%
[H][C@@]12CCC(=O)N(CCc3c[nH]cn3)[C@]1([H])CCN(Cc1c(C)n[nH]c1C)C2	-37.68%	8.93%
COCC1CN(C(=O)C2=CCCCC2)Cc2cnn(CC3CC3)c21 (stereo not shown)	32.54%	-1.774%
CC(C)CC(NC(=O)c1ccco1)c1nnc2ccccn12 (stereo not shown)	-11.67%	-31.72%
Cc1ccc(-c2cccc(CC3(C(=O)O)CCOCC3)c2)c(C)c1	1.392%	13.35%
c1ccc2c(c1)cnn2CCCNC1CCOC2(CCOCC2)C1 (stereo not shown)	1.835%	1.56%
CCc1noc(CNC2CCCN(Cc3noc(C4CC4)n3)C2)n1 (stereo not shown)	-	-8.688%
CCc1nccn1C1CCCN(C(=O)c2ccc3c(c2)OCO3)C1 (stereo not shown)	-21.94%	0.7411%
CCc1n[nH]c(C2CN(C(=O)c3cnc[nH]3)CCO2)n1 (stereo not shown)	-16.59%	10.69%
N#Cc1cccc(OCC(=O)N(Cc2ccsc2)C2CC2)c1	-6.199%	-13.35%
COc1ccc(CN[C@@H]2CO[C@H](CNC(=O)NC(C)C)[C@H]2O)cc1	-0.09079%	-1.478%
COc1ccc(C)cc1S(=O)(=O)NCCC(O)c1ccccc1 (stereo not shown)	4.885%	23.56%
CCO[C@H]1C[C@@H](O)C12CCN(C1CCN(c3ccccc3)CC1)CC2	-25.79%	1.81%
COc1cccc(C(c2c(C)n[nH]c2O)c2c(C)n[nH]c2O)c1OC	-5.284%	-31.91%
COc1ccc(NC(=O)CCNc2ncccn2)cn1	-26.87%	-5.066%
COc1ncccc1C(=O)N1CC[C@]2(C[C@@H](Oc3cccnc3)CO2)C1.O=C(O)C(F)(F)F.O=C(O)C(F)(F)F	55.04%	3.853%
CN(C)c1nccc(N(C)Cc2ncnn2C)n1	-4.458%	9.88%
CC(C)N(C)Cc1cnc2n1CCN(C(=O)c1cccs1)C2	-12.66%	8.302%
CC(NC(=O)NCC1(c2ccc(F)cc2)CC1)c1nncn1C (stereo not shown)	-18.88%	-25.93%
Cc1nccn1CCCn1c(=O)cnc2ccccc21	-18.35%	6.563%
O=C(O)C(F)(F)F.O=C(O)C(F)(F)F.O=C(O)C(F)(F)F.[H][C@@]12CN(Cc3cccnc3)C[C@]1([H])[C@@H](OC)CCN2Cc1cnn(C)c1	13.9%	0.7173%
CCOc1cc(CNC(=O)C(C#N)c2nc(C)cs2)ccc1OC(F)F (stereo not shown)	-57.43%	-20%
CNS(=O)(=O)CCNCC1(O)CCCN(CCC2CCCCC2)C1=O (stereo not shown)	-17.28%	-24.09%
CCc1noc(CNc2c(F)cccc2-n2cccn2)n1	-12.3%	-13.25%
Cc1nc(CNC(=O)Nc2ccc(N(C)C)nc2)sc1C	0.403%	-7.949%
Cc1cc(C)cc(OCCN(C)C2CCOC2=O)c1 (stereo not shown)	-4.787%	10.96%
CC(C)Nc1nc2c(cc1C(=O)N(C)C)CCNCC2.O=C(O)C(F)(F)F.O=C(O)C(F)(F)F	-28.01%	1.282%
O=C(NCCNc1ncccn1)N(Cc1ccc(F)cc1F)C1CC1	-48.44%	-
[H][C@@]12C[C@H](C(=O)NCc3ccccc3)[C@@]([H])(CN(C(=O)NCC(C)C)C1)O2	48.05%	2.913%
CC(O)CN1CCC(CN(C)Cc2cc(F)cc3cccnc23)CC1 (stereo not shown)	-7.184%	3.933%
CC1CN(C(=O)NCCNc2cnccn2)CCO1 (stereo not shown)	-15.26%	-13.09%
[H][C@@]12CN(CCO)C[C@]1([H])C(=O)N(Cc1ccc(OC)cc1)C2	-0.3218%	-17.01%
Cn1cc(NC(=O)NCc2ccoc2)ccc1=O	-17.8%	20.46%
Cc1ccc(F)c2c1CCCN2C(=O)c1cn(CC(=O)N(C)C)nn1	-58.28%	2.323%

Some entries from above, unchanged:

* CCO[C@H]1C[C@@H](O)C12CCN(C1CCN(c3ccccc3)CC1)CC2 | T. brucei: -25.79%; Toxoplasma: 1.81%
* [H][C@@]12CCC(=O)N(CCc3c[nH]cn3)[C@]1([H])CCN(Cc1c(C)n[nH]c1C)C2 | T. brucei: -37.68%; Toxoplasma: 8.93%
* Cc1cc(C)cc(OCCN(C)C2CCOC2=O)c1 (stereo not shown) | T. brucei: -4.787%; Toxoplasma: 10.96%
* [H][C@@]12CN(CCO)C[C@]1([H])C(=O)N(Cc1ccc(OC)cc1)C2 | T. brucei: -0.3218%; Toxoplasma: -17.01%
* CCc1cc(CN(C)C(=O)c2cc(=O)[nH]c(=O)[nH]2)on1 | T. brucei: -12.6%; Toxoplasma: -5.993%